Experimental data published in patent publication US20180015176A1.
These are yes or no findings as the source states them, for the method shown. Some entries that bind do so weakly or less than the wild type.

B1: TPP-883 single-substitution variant S36G of CDR-L1 (soluble Fab) (Fab, V domains shown)
VH: EVQLLESGGGLVQPGGSLRLSCAASGFTFSPYPMMWVRQAPGKGLEWVSYISPSGGKTHYADSVKGRFTISRDNSKNTLYLQMNSLRAEDTAVYYCARGGDGYFDYFDYWGQGTLVTVSS
VL: DIQMTQSPATLSASVGDRVTITCRASQSISGYLNWYQQKPGKAPKLLIYAASSLQSGVPSRFSGSGSGTDFTLTISSLQPEDFATYYCQQSYSSPGITFGPGTKVEIK
B2: TPP-883 single-substitution variant S57K of CDR-L2 (soluble Fab) (Fab, V domains shown)
VH: EVQLLESGGGLVQPGGSLRLSCAASGFTFSPYPMMWVRQAPGKGLEWVSYISPSGGKTHYADSVKGRFTISRDNSKNTLYLQMNSLRAEDTAVYYCARGGDGYFDYFDYWGQGTLVTVSS
VL: DIQMTQSPATLSASVGDRVTITCRASQSISSYLNWYQQKPGKAPKLLIYAASSLQKGVPSRFSGSGSGTDFTLTISSLQPEDFATYYCQQSYSSPGITFGPGTKVEIK
B3: TPP-883 single-substitution variant S94T of CDR-L3 (soluble Fab) (Fab, V domains shown)
VH: EVQLLESGGGLVQPGGSLRLSCAASGFTFSPYPMMWVRQAPGKGLEWVSYISPSGGKTHYADSVKGRFTISRDNSKNTLYLQMNSLRAEDTAVYYCARGGDGYFDYFDYWGQGTLVTVSS
VL: DIQMTQSPATLSASVGDRVTITCRASQSISSYLNWYQQKPGKAPKLLIYAASSLQSGVPSRFSGSGSGTDFTLTISSLQPEDFATYYCQQSYTSPGITFGPGTKVEIK

What follows are binders tested against TPP-599 (HUMAN-TNFRSF12Aaa28-80-hIgG1-Fc) (human) (assay: ELISA, soluble Fab on 2.5 nM biotinylated TWEAKR-Fc, anti-c-myc detection).

binding, binds:
B1
B2
B3
